# Primary screen of a compound library

Amino acid sequences for entries named in this document (tags omitted). Residues count along the entry.
UniProt Q4DA54, 1-478: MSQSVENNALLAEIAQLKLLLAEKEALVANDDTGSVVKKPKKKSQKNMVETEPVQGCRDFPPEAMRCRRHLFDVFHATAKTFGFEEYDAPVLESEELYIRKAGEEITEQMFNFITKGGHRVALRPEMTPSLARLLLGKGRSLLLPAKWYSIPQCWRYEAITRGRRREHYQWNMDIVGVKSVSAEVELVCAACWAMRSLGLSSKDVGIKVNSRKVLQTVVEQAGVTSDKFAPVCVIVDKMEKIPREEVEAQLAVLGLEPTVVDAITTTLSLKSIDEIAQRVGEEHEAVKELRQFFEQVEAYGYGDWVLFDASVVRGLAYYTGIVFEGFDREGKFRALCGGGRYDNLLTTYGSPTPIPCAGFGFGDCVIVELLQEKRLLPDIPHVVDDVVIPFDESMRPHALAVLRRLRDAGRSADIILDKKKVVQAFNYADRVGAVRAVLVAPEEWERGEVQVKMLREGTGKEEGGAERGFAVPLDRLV
UniProt I6X8D2, whole entry: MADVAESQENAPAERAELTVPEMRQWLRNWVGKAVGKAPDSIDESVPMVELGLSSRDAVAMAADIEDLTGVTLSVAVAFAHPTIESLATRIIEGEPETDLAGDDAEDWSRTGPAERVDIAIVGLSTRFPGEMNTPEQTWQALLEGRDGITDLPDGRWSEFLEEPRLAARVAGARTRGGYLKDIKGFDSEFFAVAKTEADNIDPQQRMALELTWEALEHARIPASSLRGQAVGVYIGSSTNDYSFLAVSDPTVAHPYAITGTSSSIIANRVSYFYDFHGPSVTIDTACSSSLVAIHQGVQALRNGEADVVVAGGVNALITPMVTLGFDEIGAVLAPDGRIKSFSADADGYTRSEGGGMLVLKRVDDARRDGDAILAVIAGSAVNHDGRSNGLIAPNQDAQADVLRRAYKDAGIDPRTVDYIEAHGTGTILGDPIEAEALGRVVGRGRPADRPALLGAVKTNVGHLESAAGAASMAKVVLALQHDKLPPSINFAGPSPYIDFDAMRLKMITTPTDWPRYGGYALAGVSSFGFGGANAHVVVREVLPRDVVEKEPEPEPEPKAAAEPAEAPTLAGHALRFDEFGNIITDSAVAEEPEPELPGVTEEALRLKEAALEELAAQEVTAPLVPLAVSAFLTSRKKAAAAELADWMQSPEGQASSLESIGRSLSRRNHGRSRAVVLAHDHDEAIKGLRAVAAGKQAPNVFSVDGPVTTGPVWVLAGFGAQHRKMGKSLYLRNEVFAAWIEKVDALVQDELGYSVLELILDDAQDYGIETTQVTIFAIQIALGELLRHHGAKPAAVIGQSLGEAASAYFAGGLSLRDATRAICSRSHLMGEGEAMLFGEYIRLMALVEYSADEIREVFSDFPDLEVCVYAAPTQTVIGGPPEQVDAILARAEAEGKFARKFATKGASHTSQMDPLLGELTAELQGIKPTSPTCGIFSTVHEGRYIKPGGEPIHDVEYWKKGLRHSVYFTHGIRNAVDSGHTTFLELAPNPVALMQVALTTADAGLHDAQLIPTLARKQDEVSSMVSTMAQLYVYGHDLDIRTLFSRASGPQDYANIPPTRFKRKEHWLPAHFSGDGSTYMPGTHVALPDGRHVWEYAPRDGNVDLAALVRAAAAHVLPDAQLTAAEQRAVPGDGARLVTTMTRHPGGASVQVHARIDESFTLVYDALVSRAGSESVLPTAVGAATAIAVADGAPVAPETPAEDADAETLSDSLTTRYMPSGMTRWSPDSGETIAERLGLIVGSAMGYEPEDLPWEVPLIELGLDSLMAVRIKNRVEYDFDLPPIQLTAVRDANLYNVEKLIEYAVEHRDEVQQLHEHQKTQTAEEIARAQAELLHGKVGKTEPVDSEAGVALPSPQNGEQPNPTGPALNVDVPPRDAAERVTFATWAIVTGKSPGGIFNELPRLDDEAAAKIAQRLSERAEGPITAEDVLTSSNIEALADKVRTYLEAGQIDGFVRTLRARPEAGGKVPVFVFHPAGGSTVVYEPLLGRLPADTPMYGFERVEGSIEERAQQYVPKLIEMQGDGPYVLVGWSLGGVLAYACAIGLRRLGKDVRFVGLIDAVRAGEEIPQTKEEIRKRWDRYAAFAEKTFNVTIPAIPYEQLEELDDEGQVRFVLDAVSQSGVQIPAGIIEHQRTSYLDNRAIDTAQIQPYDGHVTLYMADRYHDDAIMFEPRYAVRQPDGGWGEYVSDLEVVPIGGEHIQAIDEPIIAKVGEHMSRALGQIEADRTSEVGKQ
UniProt P9WNZ1, whole entry: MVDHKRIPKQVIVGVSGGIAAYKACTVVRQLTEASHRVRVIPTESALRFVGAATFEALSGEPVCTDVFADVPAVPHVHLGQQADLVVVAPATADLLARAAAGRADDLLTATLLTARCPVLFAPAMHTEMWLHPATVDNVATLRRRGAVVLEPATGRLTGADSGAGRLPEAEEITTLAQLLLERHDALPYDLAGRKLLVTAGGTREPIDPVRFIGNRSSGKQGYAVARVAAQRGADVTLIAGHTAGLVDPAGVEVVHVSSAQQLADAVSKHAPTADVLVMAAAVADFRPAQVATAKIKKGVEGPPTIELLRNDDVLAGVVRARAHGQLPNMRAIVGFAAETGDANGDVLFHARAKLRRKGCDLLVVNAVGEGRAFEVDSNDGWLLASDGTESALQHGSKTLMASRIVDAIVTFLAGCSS
UniProt Q8IDJ8, 1-583: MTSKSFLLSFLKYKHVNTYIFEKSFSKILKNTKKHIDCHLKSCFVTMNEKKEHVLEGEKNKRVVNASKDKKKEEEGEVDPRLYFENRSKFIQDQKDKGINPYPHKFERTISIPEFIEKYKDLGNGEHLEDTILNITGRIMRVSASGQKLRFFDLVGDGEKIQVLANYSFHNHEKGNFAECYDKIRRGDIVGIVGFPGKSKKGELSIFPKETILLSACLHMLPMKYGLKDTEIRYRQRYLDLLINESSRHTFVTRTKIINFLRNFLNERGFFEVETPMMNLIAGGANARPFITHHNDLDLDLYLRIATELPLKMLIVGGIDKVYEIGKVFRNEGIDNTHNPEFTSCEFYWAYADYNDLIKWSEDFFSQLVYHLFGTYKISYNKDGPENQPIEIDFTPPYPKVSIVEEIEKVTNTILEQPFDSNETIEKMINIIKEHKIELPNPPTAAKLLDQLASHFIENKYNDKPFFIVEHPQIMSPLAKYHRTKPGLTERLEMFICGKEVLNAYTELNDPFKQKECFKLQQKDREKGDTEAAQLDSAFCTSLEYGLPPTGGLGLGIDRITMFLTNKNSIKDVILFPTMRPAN
UniProt P9WFT3, whole entry: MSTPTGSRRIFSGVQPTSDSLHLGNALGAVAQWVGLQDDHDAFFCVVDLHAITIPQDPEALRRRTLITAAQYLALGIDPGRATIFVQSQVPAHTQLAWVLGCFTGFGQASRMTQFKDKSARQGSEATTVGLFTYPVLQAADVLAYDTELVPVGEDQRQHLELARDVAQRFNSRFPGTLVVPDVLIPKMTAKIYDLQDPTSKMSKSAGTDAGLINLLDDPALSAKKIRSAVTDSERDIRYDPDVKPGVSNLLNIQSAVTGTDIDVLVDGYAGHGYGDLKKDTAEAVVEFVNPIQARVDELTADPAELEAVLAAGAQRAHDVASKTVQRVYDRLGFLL

From ChEMBL document CHEMBL3988442, “University of Dundee, Small-Polar-MMV Screening Library” (2021).

TcHisRS: 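Enzyme assay of histidyl-tRNA synthetase; the read-out is not stated. Target: Histidine-tRNA ligase, Trypanosoma cruzi CL Brener (UniProt Q4DA54). Compounds at 30 µM. Direction is inferred from retests: higher values go with stronger inhibition. Of about 69,000 compounds tested this way, about 31 (0.045%) reached 50% or more in at least one test.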
Pks13 thioesterase: 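Polyketide synthase Pks13, Mycobacterium tuberculosis (UniProt I6X8D2). Enzyme assay of the thioesterase domain of polyketide synthase 13; the read-out is not stated. Compounds at 30 µM. Higher reads as stronger inhibition (inferred from which compounds were picked for retests). About 67,000 compounds were tested under these conditions; 0.46% (about 300) showed 50% or more at least once.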
CoaBC: 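Coenzyme A biosynthesis protein CoaBC, Mycobacterium tuberculosis (UniProt P9WNZ1). Enzyme assay of CoaBC with a phosphate dye (Biomol Green) read at 650 nm. Compounds at 30 µM. Higher reads as stronger inhibition, judged from the few compounds that gave an IC50. Most strong results did not repeat in a second test. Of about 67,000 compounds tested this way, about 40 (0.06%) reached 50% or more in at least one test.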
Leishmania in macrophages: 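Cell assay of Leishmania donovani living inside macrophages; the read-out is not stated. Compounds at 30 µM. Direction is inferred from retests: higher values go with stronger inhibition. Size under these conditions: about 69,000 compounds, about 1,000 of them at 50% or above in at least one test.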
PfKRS1: 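Enzyme assay of the cytosolic lysyl-tRNA synthetase in 384-well plates, read by luminescence. Target: Lysine-tRNA ligase, Plasmodium falciparum 3D7 (UniProt Q8IDJ8). Tested at 30 µM. Direction is inferred from only a few compounds that gave an IC50; most scored high, so higher reads as stronger inhibition. Of about 69,000 compounds tested this way, about 49 (0.071%) reached 50% or more in at least one test.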
MtTrpRS: 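Tryptophan-tRNA ligase, Mycobacterium tuberculosis (UniProt P9WFT3). Enzyme assay of tryptophanyl-tRNA synthetase; the read-out is not stated. Compounds at 10 µM. Direction is not recorded; retested compounds ran higher, which suggests that high means inhibition. Of about 65,000 compounds tested this way, about 64 (0.098%) reached 50% or more in at least one test.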

Results are given as percent effect.
The controls that fix the scale are not given in the record; negative values are as filed.
Compounds were drawn at random from those tested, without regard to their results.
Two or more numbers in one place are separate tests of the same structure; such repeats can differ widely.
A dash means the value is not listed here; it may have been measured.

| structure | TcHisRS | Pks13 thioesterase | CoaBC | Leishmania in macrophages | PfKRS1 | MtTrpRS |
|---|---|---|---|---|---|---|
| `Cc1oncc1C(=O)N1CC[C@H]2[C@@H]1CCC(=O)N2CC1CC1` | 3.333 | 12.22 | -0.2439 | - | 3.09 | - |
| `Cc1nsc(N2CCCN(C(=O)c3ccc4[nH]ccc4c3)CC2)n1` | 9.497 | -1.121 | -3.226 | -0.1951 | 0.1813 | -3.222 |
| `Cc1ccc(C(=O)N2CCc3c(CN4CCCC4)nn(C)c3C2)cc1C` | 7.2 | -0.365 | -31.63 | - | 3.379 | 0.2513 |
| `CC(C)c1cc(NC(CO)CO)n2nccc2n1` | 1.163 | -41.14 | 13.73 | 1.939 | 8.087 | -0.9675 |
| `COc1ccc2c(c1)C1(CCN(Cc3cccnc3)CC1)N(C)CC2` | 8.743 | -8.639 | -11.98 | - | 0.7524 | 1.696 |
| `OCc1csc(N2C[C@@H](CN3CCCCCC3)[C@@H](CO)C2)n1` | 9.045 | -4.196 | -6.472 | -14.01 | 1.575 | 1.514 |
| `CC(Cc1ccccc1F)C(=O)Nc1ccc(OCCC(N)=O)cc1` (stereo not given) | 9.392 | -26.49 | 17.48 | 13.38 | -0.02278 | -5.961 |
| `Cc1cccc(C2(C(=O)NCC3CCN(CC(F)(F)F)C3)CCC2)c1` (stereo not given) | 4.507 | - | 8.524 | 12.6 | 0.2758 | -3.195 |
| `Cc1nc(-c2cccc(C#N)c2)nn1CC1(O)CCCCC1` | 11.31 | -2.697 | -1.34 | -11.29 | 4.442 | 0.5727 |
| `c1ccc(N2CCCC3(CCN(Cc4cccs4)C3)C2)nc1` (stereo not given) | 3.008 | -15.51 | -2.66 | - | -2.73 | 0.8397 |
| `Cl.Nc1cccnc1N1CCCCCC1` | - | - | - | 13.47 | - | - |
| `O=C1CCC2(CCCN(C(=O)c3ccco3)CC2)N1` (stereo not given) | 7.767 | -15.97 | -1.527 | -3.181 | 3.464 | 6.386 |
| `CCc1ccc(C(N)c2cccc(S(C)(=O)=O)c2)cc1` (stereo not given) | 10.95 | 13.21 | 2.045 | 10.68 | 1.026 | -3.115 |
| `O=C(CC1CC1)N[C@@H]1CN(Cc2nccs2)C[C@@H]2CCCO[C@@H]21` | 4.902 | -33.55 | 7.166 | - | 5.132 | 1.953 |
| `Cn1c2ccc(F)cc2c2ncn(CCN3CCOCC3)c(=O)c21` | -5 | 2.361 | -3.874 | 14.28 | -0.5023 | -1.581 |
| `CC(O)c1cccc(OCc2ccon2)c1` (stereo not given) | 0 | -1.308 | 0.1258 | -1.513 | 6.032 | 3.129 |
| `Fc1cc(CNc2nncs2)ccc1Cl` | 3.448 | -36.03 | 4.43 | 15.98 | 12.55 | -3.037 |
| `COCCN1Cc2nccn2CC(COCc2csc(C)n2)C1.O=C(O)C(F)(F)F.O=C(O)C(F)(F)F` (stereo not given) | - | - | - | 30.35 | - | - |
| `O=C(O)c1cc(S(=O)(=O)N2CCOc3ccccc32)ccc1Br` | -2.053 | -18.05 | -1.842 | 24.92 | 0.4752 | 5.481 |
| `CN1CCC(Cc2cnc3ccccc3c2)C1` (stereo not given) | 14.73 | -1.164 | -6.258 | 34.19 | 0.4864 | -6.078 |
| `CCCn1cc(C(=O)NCC(=O)NC2CC2)c(C)n1` | 1.508 | -7.956 | 4.704 | -6.435 | 4.327 | -3.406 |
| `Cc1cccc(CN2CCc3ncnc(N4CCOCC4)c3CC2)n1.O=C(O)C(F)(F)F` | - | - | - | -4.013 | - | - |
| `O=C(c1ccoc1)N1CC[C@@H](N2CCOCC2)[C@@H]1Cc1ccccc1` | 9.091 | -13.1 | 0.8403 | - | 5.236 | 3.139 |
| `COc1cccc(CN(C)S(=O)(=O)N2CCOCC2)c1` | 3.261 | -25.39 | 8.772 | 3.786 | 5.862 | -3.496 |
| `O=C(O)C(F)(F)F.O=C(c1ccc2ccc(N3CCN(CC4CC4)CC3)n2c1)N1CCCO1` | - | - | - | 16.44 | - | - |
| `COc1cc(CN(C)Cc2ccncc2)c(SC)cc1OC` | 5.128 | -23.23 | 1.607 | 12.18 | 0.6753 | -0.1097 |
| `Cc1ccc2c(n1)N(CCN(C)C)CCN(C(=O)N1CCOCC1)C2` | 5.102 | - | 4.574 | 3.016 | -5.056 | -1.895 |
| `Cc1cccc(C2(CNC(=O)CCN3C(=O)CCC3=O)CCCC2)c1` | 2.256 | -38.16 | -1.799 | 37.01 | 8.639 | -4.642 |
| `COc1ccc(C2CCCN2C(=O)c2ccc(=O)n(C)c2)cc1OC` (stereo not given) | 6.522 | -10.75 | 3.831 | -9.758 | 6.989 | -3.431 |
| `O=C(O)C(F)(F)F.O=C(c1ccco1)N1CCc2ncnc(Oc3cccnc3)c2CC1` | - | - | - | 0.8563 | - | - |
| `CN(C)C(=O)CN1C[C@@H]2CC[C@H](C1)N(C/C=C/c1ccc(F)cc1)C2` | 18.52 | -1.2 | -5.703 | - | 2.732 | -6.64 |
| `Cc1ccc2c(n1)N(CCN(C)C)CCN(C(=O)c1ccc[nH]1)C2` | 3.825 | -10.43 | 0.7772 | - | 2.943 | -1.41 |
| `Cc1cccc(N(C)Cc2cc(=O)n3oc(C)cc3n2)c1` | 4.386 | -0.2014 | -1.033 | -20.08 | 2.009 | -2.437 |
| `CC(C)c1ccc(CN2CCCC3(CC2)CN(C)C(=O)O3)cc1` (stereo not given) | 15.18 | -23.57 | 2.642 | 46.28 | 9.295 | -2.721 |
| `[H][C@@]12CCN(Cc3cccc(C)n3)C[C@@]1([H])O[C@@H](C)C2` | - | - | - | 22.75 | - | - |
| `CNc1ccc(CC2CCCN(C(=O)c3cccc(C)n3)C2)nn1` (stereo not given) | 8.791 | -10.01 | 1.214 | 6.089 & 4.689 | 2.521 | - |
| `N[C@H]1CN(C(=O)CCC(F)(F)F)C[C@@H]1c1ccccc1` | 3.804 | -26.9 | 0 | 10.97 | 2.93 | -2.224 |
| `COCCOCc1cccc(NC(=O)N2CCCC2c2ccncc2)c1` (stereo not given) | 0.3774 | -14.38 | 6.41 | 13.39 | 5.177 | 2.893 |
| `CCc1noc(Cn2c(=O)c3c(C(F)(F)F)cc(C)nc3n2C)n1` | 2.212 | 64.55 | -7.944 | 15.96 | 1.815 | -2.431 |
| `CCN(CC)c1nc(Nc2cccc(C(C)O)c2)nc2ccccc12` (stereo not given) | 7.589 | -46.77 | 7.398 | 66.27 | 9.219 | 2.801 |
| `NC(=O)c1ccc(OCCC(=O)NC2CCc3c(F)cccc32)cc1` (stereo not given) | 3.947 | 30.2 | - | 0.1521 | -1.814 | 12.59 |
| `CCC(=O)N1CCC(c2nc(N3CCCCC3)ncc2S(C)(=O)=O)CC1` | 3.714 | 3.347 | 6.164 | 9.703 | 0.1689 | -7.668 |
| `Cc1cc(CN2CCOC(Cn3nc(C)cc3C)C2)on1` (stereo not given) | 6.471 | -15.33 | 5.882 | 10.28 | 1.481 | 4.056 |
| `Cl.O=C(NCC(F)(F)F)C1=NOC2(CCCNC2)C1` (stereo not given) | - | - | - | -15.04 | - | - |
| `CCC(C)[C@H](NC(=O)c1cc(Br)ccc1-n1cnnn1)C(=O)OC` (stereo not given in full) | 2.732 | -41.28 | -1.75 | 10.12 | -1.574 | 2.01 |
| `CC(C)[C@H](NS(C)(=O)=O)C(=O)NCc1cc(-c2ccccc2)nn1C` | 1.13 | 1.105 | 0.3614 | -0.6504 & 9.879 | 2.402 | - |
| `CCN1CC2(CCC1=O)CCN(Cc1cscn1)CC2` | 6.077 | -35.41 | 8.738 | 2.809 | 1.822 | -1.098 |
| `Cc1nc(C2CCCCN2C(=O)c2ccccc2)ncc1C(=O)N(C)C` (stereo not given) | 2.732 | -27.65 | 5.699 | 9.847 | -1.394 | -0.8811 |
| `O=C(O)C(F)(F)F.[H][C@]12CCN(C(=O)c3ccncc3F)[C@@]1([H])CC[C@H](COCC(C)C)O2` | - | - | - | -7.834 | - | - |
| `COc1cc(N2CCCC(c3nccn3Cc3ccncc3)C2)ncn1` (stereo not given) | 2.186 | -18.19 | 16.38 | -90.64 | 0.3372 | 6.11 |
| `COc1cnc(N2C[C@@H](CN3CCOCC3)[C@@H](CO)C2)nc1` | 1.622 | -22.28 | 9.091 | 18.09 | 1.539 | 1.19 |
| `COc1ccc2[nH]cc(C(=O)CNc3nc(C)cs3)c2c1` | 3.125 | -31.12 | -5.984 | - | 0.9947 | -2.144 |
| `Cc1ccc(N2CCCC(NCC3=Cc4ccccc4OC3)C2)nn1` (stereo not given) | 9.593 | -11.7 | 0.3492 | 10.96 | -0.1482 | -1.836 |